Test results published in US5420288A, “Electroluminescent device comprising oxadiazole compounds luminescent material, oxadiazole compounds for the device, and method of producing oxadiazole compounds” (Ricoh Company, Ltd., priority 1992, dated 1995).
Some entries repeat one wording, which the source may state once for all of them.

Legend:
[1] = Electroluminescent device (ITO / stilbene derivative (20) hole-transporting luminescent layer / electron-transporting layer / Mg-Ag), Examples I-6, I-9, Comparative I-1, I-2; conditions: for color of light emission / emission wavelength peak: stilbene derivative (20) luminescent layer
[2] = Three-layered electroluminescent device (ITO / triphenyl amine (19) / compound (26) electroluminescent layer / electron-transporting layer varied / Mg-Ag), Examples I-11, I-23 to I-34, Comparative I-3 to I-5; conditions: for luminance after continuous driving for one hour: constant current 30 mA/cm^2, one hour; for color of light emission / emission wavelength peak: electron-transporting layer material varied
[3] = Three-layered electroluminescent device with electroluminescent layer compound varied and oxadiazole No. 78 electron-transporting layer, Examples I-12 to I-22; conditions: Table 8; for Luminance / Voltage: Current Density J = 30 mA/cm^2
[4] = Electroluminescent device with diamine derivative (37) hole-transporting layer and Al electrode, preserved at room temperature, Application Example II-1 and Comparative Example II-1; conditions: for light emission after preservation: room temperature, one month
[5] = Electroluminescent device (ITO / stilbene derivative (5) electroluminescent layer / oxadiazole electron-transporting layer / Mg-Ag), Application Examples III-1 to III-5
[6] = Electroluminescent device (ITO / triphenyl amine (19) hole-transporting layer / oxadiazole electroluminescent layer / Mg-Ag), Examples I-1 to I-5; conditions: for luminescent color: drive voltage of 20 V or less
[7] = Electroluminescent device (ITO / compound (22) hole-transporting luminescent layer / electron-transporting layer / Mg-Ag), Example I-8
[8] = Electroluminescent device (ITO / compound (25) hole-transporting luminescent layer / electron-transporting layer / Mg-Ag), Example I-10
[9] = constant current 30 mA/cm^2, one hour
[10] = Table 9, Current Density J = 30 mA/cm^2

CC(C)(C)c1ccc(-c2nnc(-c3ccc(-c4ccccc4)cc3)o2)cc1 [(23), reference compound]
light emission after continuous driving for one hour [1, 9]: no light emission was observed any longer
color of light emission [1]: clear green light emission
emission wavelength peak [1]: 520 nm
luminance after continuous driving for one hour [2]: ≤ 20 cd/m^2
color of light emission [2]: clear blue green light emission
emission wavelength peak [2]: 485 nm

CC(C)(C)c1ccc(-c2nnc(-c3ccc(-c4nnc(-c5ccc(C(C)(C)C)cc5)o4)cc3)o2)cc1 [(24), reference compound]
luminance after continuous driving for one hour [1, 9]: ≤ 50 cd/m^2
color of light emission [1]: clear green light emission
emission wavelength peak [1]: 522 nm
luminance after continuous driving for one hour [2]: ≤ 60 cd/m^2
color of light emission [2]: clear blue green light emission
emission wavelength peak [2]: 483 nm

Cc1ccc(N(c2ccc(C3(c4ccc(N(c5ccc(C)cc5)c5ccc6ccc7cccc8ccc5c6c78)cc4)c4ccccc4-c4ccccc43)cc2)c2ccc3ccc4cccc5ccc2c3c45)cc1 [(25)]
Wavelength at Luminescent Peak [3]: 512 nm
Wavelength at Luminescent Peak, sub-peak [3]: 485 nm
Luminance [3]: 670 cd/m^2
Voltage [3]: 6.7 V

c1ccc(-c2ccc(-c3nnc(-c4cc(-c5nnc(-c6ccc(-c7ccccc7)cc6)o5)cc(-c5nnc(-c6ccc(-c7ccccc7)cc6)o5)c4)o3)cc2)cc1 [(27), reference compound]
color of light emission [2]: green light emission
emission wavelength peak [2]: 499 nm

COc1ccccc1N(c1cccc(N(c2ccccc2OC)c2ccc3ccc4cccc5ccc2c3c45)c1)c1ccc2ccc3cccc4ccc1c2c34 [(28)]
Wavelength at Luminescent Peak [3]: 494 nm
Luminance [3]: 400 cd/m^2
Voltage [3]: 6.2 V

Cc1ccc(N(c2cccc(N(c3ccc(C)cc3)c3ccc4ccc5cccc6ccc3c4c56)c2)c2ccc3ccc4cccc5ccc2c3c45)cc1 [(29)]
Wavelength at Luminescent Peak [3]: 487 nm
Luminance [3]: 340 cd/m^2
Voltage [3]: 7.0 V

COc1ccc(N(c2cccc(N(c3ccc(OC)cc3)c3ccc4ccc5cccc6ccc3c4c56)c2)c2ccc3ccc4cccc5ccc2c3c45)cc1 [(30)]
Wavelength at Luminescent Peak [3]: 512 nm
Luminance [3]: 750 cd/m^2
Voltage [3]: 6.9 V

CCCCc1ccc(N(c2cccc(N(c3ccc(CCCC)cc3)c3ccc4ccc5cccc6ccc3c4c56)c2)c2ccc3ccc4cccc5ccc2c3c45)cc1 [(31)]
Wavelength at Luminescent Peak [3]: 485 nm
Luminance [3]: 610 cd/m^2
Voltage [3]: 7.2 V

CC(C)Cc1ccc(N(c2cccc(N(c3ccc(CC(C)C)cc3)c3ccc4ccc5cccc6ccc3c4c56)c2)c2ccc3ccc4cccc5ccc2c3c45)cc1 [(32)]
Wavelength at Luminescent Peak [3]: 477 nm
Luminance [3]: 375 cd/m^2
Voltage [3]: 6.9 V

CCC(C)c1ccc(N(c2cc(C)cc(N(c3ccc(C(C)CC)cc3)c3ccc4ccc5cccc6ccc3c4c56)c2)c2ccc3ccc4cccc5ccc2c3c45)cc1 (stereo not shown) [(33)]
Wavelength at Luminescent Peak [3]: 480 nm
Luminance [3]: 620 cd/m^2
Voltage [3]: 6.2 V

COc1cccc(N(c2cccc(N(c3cccc(OC)c3)c3ccc4ccc5cccc6ccc3c4c56)c2)c2ccc3ccc4cccc5ccc2c3c45)c1 [(34)]
Wavelength at Luminescent Peak [3]: 488 nm
Luminance [3]: 561 cd/m^2
Voltage [3]: 9.5 V

Cc1ccc(N(c2ccc(-c3ccc(N(c4ccc(C)cc4)c4ccc5ccc6cccc7ccc4c5c67)cc3)cc2)c2ccc3ccc4cccc5ccc2c3c45)cc1 [(35)]
Wavelength at Luminescent Peak [3]: 508 nm
Luminance [3]: 420 cd/m^2
Voltage [3]: 8.6 V

CC(C)(C)c1ccc(N(c2cccc(N(c3ccc(C(C)(C)C)cc3)c3ccc4ccc5cccc6ccc3c4c56)c2)c2ccc3ccc4cccc5ccc2c3c45)cc1 [(36)]
Wavelength at Luminescent Peak [3]: 480 nm
Luminance [3]: 800 cd/m^2
Voltage [3]: 11.2 V

CCN(CC)c1ccc(-c2nnc(-c3ccc(C(=O)OC)cc3)o2)cc1 [(38), reference compound]
color of light emission ([4]; 25 V, 50 mA/cm^2): green light emission
light emission after preservation [4]: the light emission was no longer observed

c1ccc(-c2ccc(-c3nnc(-c4ccc(CCc5ccc(-c6nnc(-c7ccc(-c8ccccc8)cc7)o6)cc5)cc4)o3)cc2)cc1 [(III-1-A)]
color of light emission ([5]; drive voltage of 20 V or less): clear blue light
drive voltage at which light was emitted ([5]; electron-transporting layer material): ≤ 20 V

CCN(CC)c1ccc(-c2nnc(-c3ccc(Oc4ccc(-c5nnc(-c6ccc(N(CC)CC)cc6)o5)cc4)cc3)o2)cc1 [compound 2]
luminescent color [6]: clear blue light
drive voltage at which light was emitted ([6]; electroluminescent layer material): ≤ 20 V

Clc1ccc(C=Cc2nnc(-c3ccc(C=Cc4ccc(-c5nnc(C=Cc6ccc(Cl)cc6)o5)cc4)cc3)o2)cc1 [compound 13]
luminescent color [6]: blue

c1ccc2c(-c3nnc(-c4ccc(CCc5ccc(-c6nnc(-c7cccc8ccccc78)o6)cc5)cc4)o3)cccc2c1 [compound 23]
Luminance [2, 10]: 10 cd/m^2
Voltage [2, 10]: 12.0 V

c1ccc(-c2ccc(-c3nnc(-c4ccc(CCc5ccc(-c6nnc(-c7ccc(-c8ccccc8)cc7)o6)cc5)cc4)o3)cc2)cc1 [compound 25]
Luminance ([1]; 11.2 V, current density of 30 mA/cm^2): 230 cd/m^2
emission spectrum center ([1]; Example I-6): 520 nm
drive voltage ([1]; current density of 30 mA/cm^2): 11.2 V
color of light emission [1]: green light
Luminance [2, 10]: 20 cd/m^2
Voltage [2, 10]: 18.0 V

COc1ccc(-c2nnc(-c3ccc(CCc4ccc(-c5nnc(-c6ccc(OC)cc6)o5)cc4)cc3)o2)cc1 [compound 26]
Luminance [2, 10]: 25 cd/m^2
Voltage [2, 10]: 16.0 V

Clc1ccc(-c2nnc(-c3ccc(CCc4ccc(-c5nnc(-c6ccc(Cl)cc6)o5)cc4)cc3)o2)cc1 [compound 27]
Luminance [2, 10]: 15 cd/m^2
Voltage [2, 10]: 20.0 V

CC(C)(C)c1ccc(-c2nnc(-c3ccc(-c4ccc(CCOCCc5ccc(-c6ccc(-c7nnc(-c8ccc(C(C)(C)C)cc8)o7)cc6)cc5)cc4)cc3)o2)cc1 [compound 44]
luminescent color [6]: blue violet

CCN(CC)c1ccc(-c2nnc(C=Cc3ccc(C=Cc4nnc(-c5ccc(N(CC)CC)cc5)o4)cc3)o2)cc1 [compound 49]
luminescent color [6]: blue green

C(=Cc1nnc(-c2ccccc2)o1)c1ccc(-c2ccc(C=Cc3nnc(-c4ccccc4)o3)cc2)cc1 [compound 57]
luminescent color [6]: blue green

Cc1ccc(-c2nnc(-c3ccc(C(c4ccc(-c5nnc(-c6ccc(C)cc6)o5)cc4)(C(F)(F)F)C(F)(F)F)cc3)o2)cc1 [compound 68]
Luminance [2, 10]: 540 cd/m^2
Voltage [2, 10]: 11.0 V

Cc1ccccc1-c1nnc(-c2ccc(C(c3ccc(-c4nnc(-c5ccccc5C)o4)cc3)(C(F)(F)F)C(F)(F)F)cc2)o1 [compound 70]
Luminance [2, 10]: 660 cd/m^2
Voltage [2, 10]: 12.8 V

FC(F)(F)C(c1ccc(-c2nnc(-c3ccc(Cl)cc3)o2)cc1)(c1ccc(-c2nnc(-c3ccc(Cl)cc3)o2)cc1)C(F)(F)F [compound 71]
Luminance [2, 10]: 330 cd/m^2
Voltage [2, 10]: 12.6 V

FC(F)(F)C(c1ccc(-c2nnc(-c3ccc(-c4ccccc4)cc3)o2)cc1)(c1ccc(-c2nnc(-c3ccc(-c4ccccc4)cc3)o2)cc1)C(F)(F)F [compound 78]
Luminance ([1]; 12.5 V, current density of 100 mA/cm^2): 2000 cd/m^2
luminance after continuous driving for one hour [1, 9]: 100 cd/m^2
Voltage ([1]; current density of 100 mA/cm^2): 12.5 V
color of light emission [1]: clear green light emission
emission wavelength peak [1]: 515 nm
Luminance ([7]; 20 V, 10 mA/cm^2): 40 cd/m^2
color of light emission ([7]; 20 V, 10 mA/cm^2): clear blue light emission
emission wavelength peak ([7]; 20 V, 10 mA/cm^2): 464 nm
Voltage ([7]; current density of 10 mA/cm^2): 20 V
drive voltage after continuous driving for one hour ([8]; 30 mA/cm^2, one hour): 24 V
luminous efficiency with time ([8]; 30 mA/cm^2, one hour): luminous efficiency was increased with time
luminance after continuous driving for one hour ([8]; 30 mA/cm^2, one hour, drive voltage of 24 V): 215 cd/m^2
Luminance ([8]; initial, constant current 30 mA/cm^2): 8 cd/m^2
Luminance ([2]; 6.4 V, 30 mA/cm^2, Example I-11): 640 cd/m^2
luminance after continuous driving for one hour [2]: 300 cd/m^2
direct voltage ([2]; current density of 30 mA/cm^2, Example I-11): 6.4 V
emission wavelength peak [2]: 475 nm
Luminance ([4]; 25 V, 50 mA/cm^2): 400 cd/m^2
color of light emission ([4]; 25 V, 50 mA/cm^2): clear white light emission
emission wavelength peak (first) ([4]; 25 V, 50 mA/cm^2): 537 nm
emission wavelength peak (second) ([4]; 25 V, 50 mA/cm^2): 407 nm
drive voltage ([4]; current density of 50 mA/cm^2): 25 V
light emission after preservation [4]: the same clear light emission was observed

COc1ccc(-c2nnc(-c3ccc(C(c4ccc(-c5nnc(-c6ccc(OC)cc6)o5)cc4)(C(F)(F)F)C(F)(F)F)cc3)o2)cc1 [compound 79]
Luminance [2, 10]: 640 cd/m^2
Voltage [2, 10]: 10.2 V

FC(F)(F)C(c1ccc(-c2nnc(-c3cccc4ccccc34)o2)cc1)(c1ccc(-c2nnc(-c3cccc4ccccc34)o2)cc1)C(F)(F)F [compound 89]
Luminance [2, 10]: 670 cd/m^2
Voltage [2, 10]: 10.5 V

FC(F)(F)C(c1ccc(-c2nnc(-c3ccc4ccccc4c3)o2)cc1)(c1ccc(-c2nnc(-c3ccc4ccccc4c3)o2)cc1)C(F)(F)F [compound 91]
Luminance [2, 10]: 840 cd/m^2
Voltage [2, 10]: 12.5 V

FC(F)(F)C(c1ccc(-c2nnc(-c3ccccc3-c3ccccc3)o2)cc1)(c1ccc(-c2nnc(-c3ccccc3-c3ccccc3)o2)cc1)C(F)(F)F [compound 92]
Luminance [2, 10]: 568 cd/m^2
Voltage [2, 10]: 13.5 V

COc1ccccc1-c1nnc(-c2ccc(C(c3ccc(-c4nnc(-c5ccccc5OC)o4)cc3)(C(F)(F)F)C(F)(F)F)cc2)o1 [compound 93]
Luminance [2, 10]: 420 cd/m^2
Voltage [2, 10]: 14.3 V
